Common to all, as to conditions: stereoisomer not certain
In test [1] the target is T1, OR5K1 (Homo sapiens) (UniProt Q8NHB7).
T1 sequence (whole entry): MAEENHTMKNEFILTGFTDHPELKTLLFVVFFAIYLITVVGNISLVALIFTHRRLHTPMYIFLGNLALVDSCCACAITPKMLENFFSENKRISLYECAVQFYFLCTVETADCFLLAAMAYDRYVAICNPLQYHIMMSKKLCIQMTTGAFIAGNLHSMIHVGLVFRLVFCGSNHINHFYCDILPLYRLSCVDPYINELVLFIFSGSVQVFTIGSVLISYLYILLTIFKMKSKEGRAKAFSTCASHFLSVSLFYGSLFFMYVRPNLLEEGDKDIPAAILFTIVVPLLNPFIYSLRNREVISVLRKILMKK
In a few lines:
(§1)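 Each entry records the cell line, G-protein, co-transfected protein and tags used. Methods varied with the source, often transient luciferase assays in mammalian cell lines. A receptor–molecule pair is called responsive (active) if the original authors judged its signal statistically different from baseline and non-responsive (inactive) otherwise.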

Chains of the proteins cited; added tags and fusions are not shown. Where a name states a change or a piece, a line headed by the entry shows the natural chain unless it says otherwise. Chains listed by the source or under a name are the forms on record and can include a tag or linker.
UniProt Q8NGP8: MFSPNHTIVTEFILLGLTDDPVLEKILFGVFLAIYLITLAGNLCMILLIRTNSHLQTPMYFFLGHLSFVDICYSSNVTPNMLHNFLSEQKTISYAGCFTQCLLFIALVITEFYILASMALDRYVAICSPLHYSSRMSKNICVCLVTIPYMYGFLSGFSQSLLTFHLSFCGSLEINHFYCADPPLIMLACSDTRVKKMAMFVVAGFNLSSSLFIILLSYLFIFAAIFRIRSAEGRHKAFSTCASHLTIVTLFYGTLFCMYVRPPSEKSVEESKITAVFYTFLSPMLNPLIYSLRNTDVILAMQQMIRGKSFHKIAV
OR5L1, as listed by the source: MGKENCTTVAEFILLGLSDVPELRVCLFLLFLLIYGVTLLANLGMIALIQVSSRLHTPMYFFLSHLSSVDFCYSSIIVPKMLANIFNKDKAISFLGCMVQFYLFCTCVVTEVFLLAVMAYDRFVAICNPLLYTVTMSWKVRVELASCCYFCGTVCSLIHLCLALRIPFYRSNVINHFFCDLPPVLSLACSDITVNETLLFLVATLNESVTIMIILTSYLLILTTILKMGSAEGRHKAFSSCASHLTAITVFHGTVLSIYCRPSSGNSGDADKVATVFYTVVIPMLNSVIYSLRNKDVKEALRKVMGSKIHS

Test [2] concerns the target T2, OR5K2 (Homo sapiens) (UniProt Q8NHB8).
T2 sequence (whole entry): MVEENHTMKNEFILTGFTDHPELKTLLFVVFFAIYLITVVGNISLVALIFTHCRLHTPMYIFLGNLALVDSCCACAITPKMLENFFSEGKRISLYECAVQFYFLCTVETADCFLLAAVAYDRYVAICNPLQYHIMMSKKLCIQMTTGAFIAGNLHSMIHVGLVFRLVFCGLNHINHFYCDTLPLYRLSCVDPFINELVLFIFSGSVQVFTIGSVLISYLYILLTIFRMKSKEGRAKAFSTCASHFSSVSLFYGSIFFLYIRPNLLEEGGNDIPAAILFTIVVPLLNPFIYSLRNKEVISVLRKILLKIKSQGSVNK
In a few lines:
as §1

Test [3] has as its system T3, OR5K3.
T3 sequence (whole entry): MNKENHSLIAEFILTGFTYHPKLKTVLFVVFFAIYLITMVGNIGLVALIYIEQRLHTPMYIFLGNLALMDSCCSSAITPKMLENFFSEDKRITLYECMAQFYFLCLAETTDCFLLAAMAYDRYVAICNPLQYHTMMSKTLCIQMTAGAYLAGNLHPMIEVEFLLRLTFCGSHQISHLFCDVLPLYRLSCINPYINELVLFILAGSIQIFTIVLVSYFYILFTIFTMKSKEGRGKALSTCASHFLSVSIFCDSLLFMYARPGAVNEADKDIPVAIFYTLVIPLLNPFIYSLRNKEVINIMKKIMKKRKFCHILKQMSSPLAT
In short, it runs like this:
as §1

Test [4] relates to T4, OR5K4.
T4 sequence (whole entry): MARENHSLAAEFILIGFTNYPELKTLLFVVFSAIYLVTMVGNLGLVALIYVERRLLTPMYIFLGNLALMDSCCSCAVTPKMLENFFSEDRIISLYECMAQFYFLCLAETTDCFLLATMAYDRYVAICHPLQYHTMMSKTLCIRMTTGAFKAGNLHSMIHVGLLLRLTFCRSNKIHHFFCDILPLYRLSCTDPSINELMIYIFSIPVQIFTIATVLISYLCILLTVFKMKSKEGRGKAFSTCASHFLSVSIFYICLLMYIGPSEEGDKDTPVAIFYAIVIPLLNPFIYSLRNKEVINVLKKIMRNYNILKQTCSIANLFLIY
In short, it runs like this: as §1

The target of test [5] is T5, OR5L1 (Homo sapiens) (UniProt Q8NGL2).
T5 sequence (whole entry): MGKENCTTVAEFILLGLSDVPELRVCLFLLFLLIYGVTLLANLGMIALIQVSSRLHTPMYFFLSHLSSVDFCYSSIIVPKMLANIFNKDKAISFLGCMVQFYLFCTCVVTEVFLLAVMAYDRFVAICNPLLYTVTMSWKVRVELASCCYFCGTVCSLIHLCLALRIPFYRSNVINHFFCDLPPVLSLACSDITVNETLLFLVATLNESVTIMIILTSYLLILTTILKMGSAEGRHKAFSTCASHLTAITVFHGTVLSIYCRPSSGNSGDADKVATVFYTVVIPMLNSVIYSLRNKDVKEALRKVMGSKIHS
In a few lines:
as §1

Test [6] has as its system T6, OR5L1.
T6 sequence (whole entry): T5 sequence (whole entry) with T240S
In short, it runs like this: as §1

The target of test [7] is OR5L2 (Homo sapiens) (UniProt Q8NGL0). In short, it runs like this:
as §1

Test [8] has as its target OR5M1 (Homo sapiens) (UniProt Q8NGP8). In short, it runs like this: as §1

The structures appear in SMILES notation. Numbering of substitutions follows the chain as printed. Only a part is listed here, and it is no random draw. Calls are pooled over several reports, among them a noisy single-well screen. The list shows a part of the results. The list shows a part of the results.

In the case of `O=C1CCCCCCCCCCCCCCO1`, the “odorant receptor agonist call” value in test [1], in test [2], in test [3], in test [4], in test [5] and in test [6] was “inactive” throughout.
`CC(C)(O)CCCC1=CCC(C=O)CC1` (stereo not drawn): the “odorant receptor agonist call” value in test [4] and in test [6] was “inactive” in each case.
On to `CCCCO`, for which the “odorant receptor agonist call” value in test [2], in test [3], in test [4], in test [5] and in test [6] was “inactive” in each case.
In the case of `CC(C)=CCCC(C)=CC=O`, the “odorant receptor agonist call” value in test [1], in test [2], in test [3], in test [4], in test [5] and in test [6] was “inactive” throughout.
Take `CC12CCC(C1)C(C)(C)C2=O` (stereo not drawn): the “odorant receptor agonist call” value in test [1], in test [2], in test [3], in test [4], in test [5] and in test [6] was “inactive” each time.
Take `COC(=O)c1ccccc1`: the “odorant receptor agonist call” value in test [1], in test [2], in test [3] and in test [5] was “inactive” in each case.
As for `CCCCCCCC=CC=O`, the “odorant receptor agonist call” value in test [2], in test [3], in test [4] and in test [5] was “inactive” each time. In test [6], the “odorant receptor agonist call” value is “active”.
Turning to `CC(=O)c1ccccc1`, the “odorant receptor agonist call” value in test [1], in test [2], in test [3] and in test [5] was “inactive” in each case.
As to `CC1COCc2cc3c(cc21)C(C)(C)C(C)C3(C)C` (stereo not drawn), the “odorant receptor agonist call” value in test [1] and in test [6] was “inactive” throughout. Besides, the “odorant receptor agonist call” value in test [2], in test [3], in test [4] and in test [5] was “active” in each case.
With `CC1CCC(C(C)C)C(O)C1` (stereo not drawn), the “odorant receptor agonist call” value in test [1], in test [2], in test [3], in test [4], in test [5] and in test [6] was “inactive” in each case.
Regarding `CCCCCCOC(=O)CCC`, the “odorant receptor agonist call” value in test [1], in test [2], in test [3], in test [4], in test [5] and in test [6] was “inactive” in each case.
With `COc1cc(C=O)ccc1O`, the “odorant receptor agonist call” value in test [1], in test [2], in test [3], in test [4], in test [5] and in test [6] was “inactive” throughout.
On to `c1ccc(Oc2ccccc2)cc1`, for which the “odorant receptor agonist call” value in test [1], in test [2], in test [3], in test [4], in test [5] and in test [6] was “inactive” each time.
`CCCCCC(=O)O`: the “odorant receptor agonist call” value in test [1], in test [2], in test [3], in test [4], in test [5] and in test [6] was “inactive” throughout.
As to `CCCCCOC(C)=O`, the “odorant receptor agonist call” value in test [1], in test [2], in test [3], in test [4], in test [5] and in test [6] was “inactive” in each case.
Consider `CCCCCC(C)=O`, for which the “odorant receptor agonist call” value in test [1], in test [2], in test [3] and in test [5] was “inactive” each time.
Consider `CC(=O)C(C)=O`, for which the “odorant receptor agonist call” value in test [1], in test [2], in test [3], in test [4], in test [5] and in test [6] was “inactive” each time.
Turning to `CC(=O)OCC=C(C)CCC=C(C)C`, the “odorant receptor agonist call” value in test [1], in test [2], in test [3], in test [5] and in test [6] was “inactive” throughout. Further, the “odorant receptor agonist call” value in test [4] was “active”.
As for `CC=Cc1ccc(O)c(OC)c1`, the “odorant receptor agonist call” value in test [2], in test [3] and in test [5] was “inactive” each time. Further, the “odorant receptor agonist call” value in test [4] and in test [6] was “active” throughout.
On to `O=C1CCCCC1`, for which the “odorant receptor agonist call” value in test [1], in test [2], in test [3] and in test [5] was “inactive” each time.
With `CC12C=CCC1C1CCC3CC(=O)CCC3(C)C1CC2` (stereo not drawn), the “odorant receptor agonist call” value in test [1], in test [2], in test [3], in test [4], in test [6] and in test [7] was “inactive” in each case. Also, in test [8], the “odorant receptor agonist call” value was “inactive”.
Turning to `CC12CCC(CC1)C(C)(C)O2`, the “odorant receptor agonist call” value in test [1], in test [2], in test [3], in test [4], in test [5] and in test [6] was “inactive” throughout.
Turning to `CCC1(O)C2(C)CCC(C2)C1(C)C` (stereo not drawn), the “odorant receptor agonist call” value in test [1], in test [2], in test [3], in test [4], in test [5] and in test [6] was “inactive” in each case.
For the compound `CC(C)CC(=O)O`, the “odorant receptor agonist call” value in test [1], in test [2], in test [3], in test [5] and in test [6] was “inactive” throughout. Besides, the “odorant receptor agonist call” value in test [4] is “active”.
Take `O=CCc1ccccc1`: the “odorant receptor agonist call” value in test [1], in test [2], in test [3] and in test [5] was “inactive” throughout. The “odorant receptor agonist call” value in test [4] and in test [6] was “active” each time.
With `c1cnccn1`, the “odorant receptor agonist call” value in test [1], in test [2], in test [3], in test [4], in test [5] and in test [6] was “inactive” throughout.
`CC1=NC(C)SC1C` (stereo not drawn): the “odorant receptor agonist call” value in test [1] is “active”. Further, the “odorant receptor agonist call” value in test [2], in test [3] and in test [5] was “inactive” throughout.
For `C=C(C)C1CCC2=CC(=O)CC(C)C2(C)C1` (stereo not drawn), in test [4], the “odorant receptor agonist call” value was “active”. Moreover, the “odorant receptor agonist call” value in test [6] was “inactive”.

Values taken from the M2OR odorant receptor database.
